{"source": "paper PMC7819943", "about": "“Rice protein-binding microarrays: a tool to detect cis-acting elements near promoter regions in rice”", "note": "The other results are listed elsewhere or left out.", "data": [{"target": "T1, OsSMF1 (Oryza sativa, UniProt Q6ZLB0 1-436)", "T1 sequence": "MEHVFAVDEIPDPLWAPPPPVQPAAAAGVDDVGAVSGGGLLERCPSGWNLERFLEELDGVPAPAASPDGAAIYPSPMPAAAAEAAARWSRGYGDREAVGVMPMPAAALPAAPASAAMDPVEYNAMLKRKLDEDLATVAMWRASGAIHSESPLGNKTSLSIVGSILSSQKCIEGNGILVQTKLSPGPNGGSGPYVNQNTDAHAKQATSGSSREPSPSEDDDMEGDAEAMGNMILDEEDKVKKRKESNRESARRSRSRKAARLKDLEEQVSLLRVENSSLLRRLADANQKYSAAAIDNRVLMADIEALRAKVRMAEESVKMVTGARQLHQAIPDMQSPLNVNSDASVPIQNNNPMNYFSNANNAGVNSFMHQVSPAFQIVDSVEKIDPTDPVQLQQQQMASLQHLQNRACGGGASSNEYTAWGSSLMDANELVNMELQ", "experiment": "protein-binding microarray (RPBM); PBS, 2% BSA, 51.3 ng/ul salmon testes DNA, 50 uM zinc acetate, 200 nM TF, 25 C, 1 h; high values mean tight binding", "details": "protein: recombinant; tags: N-terminal polyhistidine and DsRed monomer fusion (pET32a); chain copies: 2; label: CyDye5-dUTP incorporated in the synthesized complementary strand; 3' TTTTT single-stranded linker to array surface; dsDNA, one strand shown", "method_in_brief": "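The binding signal is fluorescence intensity per array feature (arbitrary units). Readings came from an Axon 4000B scanner after a washed, 2% BSA-blocked, double-stranded custom Agilent array had been incubated for 1 h at 25 °C with 200 nM protein and 50 µM zinc acetate. The protein was a Ni–NTA-purified transcription factor fused N-terminally to polyhistidine and DsRed, expressed in E. coli BL21-CodonPlus.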", "values": [{"sequence": "TCTCAACGACACGACGACATCCGCTTGTATTTCTTTCGTTCGGAGTCACCTAGTGCAG", "binding signal": "3560 fluorescence intensity (a.u.)"}, {"sequence": "CTGGTGGTCTACTCGCCGATGTCAACGTGCCACCTGCACTCGGAGTCACCTAGTGCAG", "binding signal": "3190 fluorescence intensity (a.u.)"}, {"sequence": "TATACTTGTTGGCTGCTGCTTTGTGTGTGGTGTGTTGTTTCGGAGTCACCTAGTGCAG", "binding signal": "4510 fluorescence intensity (a.u.)"}, {"sequence": "TTCCAAGAACAAGGAAGAGGCAAGGACGTGGTGAAGCTTGCGGAGTCACCTAGTGCAG", "binding signal": "3190 fluorescence intensity (a.u.)"}, {"sequence": "GATGATGACGACGAGTCGACGATGCGCTTGCAAGCCAAACCGGAGTCACCTAGTGCAG", "binding signal": "17400 fluorescence intensity (a.u.)"}, {"sequence": "AAGCATGGTCTCCTTCGCCATTGCTTTCGCCACTTCGGTCCGGAGTCACCTAGTGCAG", "binding signal": "24300 fluorescence intensity (a.u.)"}, {"sequence": "CATGAATATTCATGAGTCATAGTTTGCAAGTTTAGGAAAACGGAGTCACCTAGTGCAG", "binding signal": "3520 fluorescence intensity (a.u.)"}, {"sequence": "TGGGTGATGACGGAGCTAGTCCGCCACCCACGGATCCTCACGGAGTCACCTAGTGCAG", "binding signal": "3440 fluorescence intensity (a.u.)"}, {"sequence": "TCATTCGCCACATCCGCAAACCCTATAAATCTCCCACCCCCGGAGTCACCTAGTGCAG", "binding signal": "4580 fluorescence intensity (a.u.)"}, {"sequence": "CCTCCAAGCTTATCATGTCATGTTGGCTTCTTGAATGCACCGGAGTCACCTAGTGCAG", "binding signal": "3860 fluorescence intensity (a.u.)"}, {"sequence": "AGTTAGGCGTTTCATGAGCCGTCCGATCGTCAAGTAAACGCGGAGTCACCTAGTGCAG", "binding signal": "3180 fluorescence intensity (a.u.)"}, {"sequence": "TGGTAAGCGGAGCGACGTGGCGCGGAGGAGGATAGAAATGCGGAGTCACCTAGTGCAG", "binding signal": "4290 fluorescence intensity (a.u.)"}, {"sequence": "ACCCAGCCAATTGACAATTCGATGGTGACTAATGGTGAACCGGAGTCACCTAGTGCAG", "binding signal": "4690 fluorescence intensity (a.u.)"}, {"sequence": "GAAGTATGTTGTTTGCTTGTGTTTGTGATGCTATATTGTTCGGAGTCACCTAGTGCAG", "binding signal": "3500 fluorescence intensity (a.u.)"}, {"sequence": "GATGGCCACTGCCACCAGCACTACAATTATGCATATCCCTCGGAGTCACCTAGTGCAG", "binding signal": "3340 fluorescence intensity (a.u.)"}, {"sequence": "AATATCAATGCACGTGGTTGGTGAAGATTCCATATGGCATCGGAGTCACCTAGTGCAG", "binding signal": "3810 fluorescence intensity (a.u.)"}, {"sequence": "GAAGAAGATGACATAAGGGGTAGTAATTGGTGTGACTTTTCGGAGTCACCTAGTGCAG", "binding signal": "4200 fluorescence intensity (a.u.)"}, {"sequence": "GTGAAGGAAATAATTTCATGAGACTGGCTTATTCAGCAGTCGGAGTCACCTAGTGCAG", "binding signal": "3920 fluorescence intensity (a.u.)"}, {"sequence": "AGTGGCCAATCTACAAATGCGAGTATCAGCCAAGGTGATGCGGAGTCACCTAGTGCAG", "binding signal": "3440 fluorescence intensity (a.u.)"}, {"sequence": "CCTCGAGCCGAGACGAGACGAGACGGGTTCGTCTCCTTTACGGAGTCACCTAGTGCAG", "binding signal": "3180 fluorescence intensity (a.u.)"}, {"sequence": "AACTTCTCAATGTGTGGCCCCGAGCTGTGGCTTCACAGCTCGGAGTCACCTAGTGCAG", "binding signal": "63300 fluorescence intensity (a.u.)"}, {"sequence": "ATGCTACTTATCTCACATGATGTCTTGGGTATTGTGTAGACGGAGTCACCTAGTGCAG", "binding signal": "3490 fluorescence intensity (a.u.)"}, {"sequence": "GATCCTAGTCACAGACCAACATCGGGAGGCGGAGATCTCTCGGAGTCACCTAGTGCAG", "binding signal": "3280 fluorescence intensity (a.u.)"}, {"sequence": "GAAACTTTCCTACGCACAAACTTTCAACTTTTACGTCACACGGAGTCACCTAGTGCAG", "binding signal": "3340 fluorescence intensity (a.u.)"}, {"sequence": "AAGATGCAGGCAGAGGCTATTCTCCACGTGGCCATCTCCCCGGAGTCACCTAGTGCAG", "binding signal": "12100 fluorescence intensity (a.u.)"}, {"sequence": "TGAGGCCCATGTCACCTTCCTCCTCCCATCTCATTCTCATCGGAGTCACCTAGTGCAG", "binding signal": "5070 fluorescence intensity (a.u.)"}, {"sequence": "AATATGTAAAACTACATGTATACATAAAAGTATATTTAACCGGAGTCACCTAGTGCAG", "binding signal": "5340 fluorescence intensity (a.u.)"}, {"sequence": "ACTATATTTTAGTATTTTCTATTTTCGATGCTTTACAGCCCGGAGTCACCTAGTGCAG", "binding signal": "3940 fluorescence intensity (a.u.)"}, {"sequence": "GCCTTCCGTTCCGCTCCTCTACCGCCGCGTCAAGATTCCCCGGAGTCACCTAGTGCAG", "binding signal": "4950 fluorescence intensity (a.u.)"}, {"sequence": "CGCATCTGCACACGTGGCGATCTTCCATTGGCTGGGGCGTCGGAGTCACCTAGTGCAG", "binding signal": "15300 fluorescence intensity (a.u.)"}, {"sequence": "GAATGGTAGTTATCCCACGTGGCATCATTTGGCGCCAAGGCGGAGTCACCTAGTGCAG", "binding signal": "19900 fluorescence intensity (a.u.)"}, {"sequence": "GAGCGCGGCACGCGAGCATCAGGTGGTGCCGTGGTGGTGGCGGAGTCACCTAGTGCAG", "binding signal": "3240 fluorescence intensity (a.u.)"}, {"sequence": "AAGCATGTGACGAGGATCCTCGTCGTGATATTCCGTCCATCGGAGTCACCTAGTGCAG", "binding signal": "5800 fluorescence intensity (a.u.)"}, {"sequence": "GACATAGCAGACGCATCTGACAGACACACGTAATCTCAACCGGAGTCACCTAGTGCAG", "binding signal": "4600 fluorescence intensity (a.u.)"}, {"sequence": "GGCTAGGTGCAGTGACGTGTGTCCACTCCCCGTTGATTTGCGGAGTCACCTAGTGCAG", "binding signal": "13600 fluorescence intensity (a.u.)"}, {"sequence": "GACCTGTGGGGCCCACGTGGGTCCCACGCTGAGTCAGCCGCGGAGTCACCTAGTGCAG", "binding signal": "20000 fluorescence intensity (a.u.)"}, {"sequence": "AGGCTTCTCAAACAGGCGTCACAACATACCGTGCTATCGTCGGAGTCACCTAGTGCAG", "binding signal": "3290 fluorescence intensity (a.u.)"}, {"sequence": "TTGACAATGTGGTGCTACAGTAAATATTTGATAATGATGGCGGAGTCACCTAGTGCAG", "binding signal": "3330 fluorescence intensity (a.u.)"}, {"sequence": "GATGAGTGATGAAGCAGCTGTTTGTGATTAGATCTGTCTGCGGAGTCACCTAGTGCAG", "binding signal": "3730 fluorescence intensity (a.u.)"}, {"sequence": "TTCTAGACCTACTTAATTAACACTGCCAACTTGGTTAACACGGAGTCACCTAGTGCAG", "binding signal": "3690 fluorescence intensity (a.u.)"}, {"sequence": "ACGCTAGCATCACTGCATCTGCACACACTGCACTTGCCTTCGGAGTCACCTAGTGCAG", "binding signal": "3180 fluorescence intensity (a.u.)"}, {"sequence": "ACAGGTATCTAGTCACTAGTGACGGGCCATATAGATCCAGCGGAGTCACCTAGTGCAG", "binding signal": "5010 fluorescence intensity (a.u.)"}]}]}
